Data reported in article PMC9481740.
These are yes or no findings as the source states them, for the method shown. Some entries that bind do so weakly or less than the wild type.

Chains of the proteins cited; added tags and fusions are not shown. Lines headed by an entry give the natural chain unless they say otherwise; changes in a name come on top.
UniProt P50748: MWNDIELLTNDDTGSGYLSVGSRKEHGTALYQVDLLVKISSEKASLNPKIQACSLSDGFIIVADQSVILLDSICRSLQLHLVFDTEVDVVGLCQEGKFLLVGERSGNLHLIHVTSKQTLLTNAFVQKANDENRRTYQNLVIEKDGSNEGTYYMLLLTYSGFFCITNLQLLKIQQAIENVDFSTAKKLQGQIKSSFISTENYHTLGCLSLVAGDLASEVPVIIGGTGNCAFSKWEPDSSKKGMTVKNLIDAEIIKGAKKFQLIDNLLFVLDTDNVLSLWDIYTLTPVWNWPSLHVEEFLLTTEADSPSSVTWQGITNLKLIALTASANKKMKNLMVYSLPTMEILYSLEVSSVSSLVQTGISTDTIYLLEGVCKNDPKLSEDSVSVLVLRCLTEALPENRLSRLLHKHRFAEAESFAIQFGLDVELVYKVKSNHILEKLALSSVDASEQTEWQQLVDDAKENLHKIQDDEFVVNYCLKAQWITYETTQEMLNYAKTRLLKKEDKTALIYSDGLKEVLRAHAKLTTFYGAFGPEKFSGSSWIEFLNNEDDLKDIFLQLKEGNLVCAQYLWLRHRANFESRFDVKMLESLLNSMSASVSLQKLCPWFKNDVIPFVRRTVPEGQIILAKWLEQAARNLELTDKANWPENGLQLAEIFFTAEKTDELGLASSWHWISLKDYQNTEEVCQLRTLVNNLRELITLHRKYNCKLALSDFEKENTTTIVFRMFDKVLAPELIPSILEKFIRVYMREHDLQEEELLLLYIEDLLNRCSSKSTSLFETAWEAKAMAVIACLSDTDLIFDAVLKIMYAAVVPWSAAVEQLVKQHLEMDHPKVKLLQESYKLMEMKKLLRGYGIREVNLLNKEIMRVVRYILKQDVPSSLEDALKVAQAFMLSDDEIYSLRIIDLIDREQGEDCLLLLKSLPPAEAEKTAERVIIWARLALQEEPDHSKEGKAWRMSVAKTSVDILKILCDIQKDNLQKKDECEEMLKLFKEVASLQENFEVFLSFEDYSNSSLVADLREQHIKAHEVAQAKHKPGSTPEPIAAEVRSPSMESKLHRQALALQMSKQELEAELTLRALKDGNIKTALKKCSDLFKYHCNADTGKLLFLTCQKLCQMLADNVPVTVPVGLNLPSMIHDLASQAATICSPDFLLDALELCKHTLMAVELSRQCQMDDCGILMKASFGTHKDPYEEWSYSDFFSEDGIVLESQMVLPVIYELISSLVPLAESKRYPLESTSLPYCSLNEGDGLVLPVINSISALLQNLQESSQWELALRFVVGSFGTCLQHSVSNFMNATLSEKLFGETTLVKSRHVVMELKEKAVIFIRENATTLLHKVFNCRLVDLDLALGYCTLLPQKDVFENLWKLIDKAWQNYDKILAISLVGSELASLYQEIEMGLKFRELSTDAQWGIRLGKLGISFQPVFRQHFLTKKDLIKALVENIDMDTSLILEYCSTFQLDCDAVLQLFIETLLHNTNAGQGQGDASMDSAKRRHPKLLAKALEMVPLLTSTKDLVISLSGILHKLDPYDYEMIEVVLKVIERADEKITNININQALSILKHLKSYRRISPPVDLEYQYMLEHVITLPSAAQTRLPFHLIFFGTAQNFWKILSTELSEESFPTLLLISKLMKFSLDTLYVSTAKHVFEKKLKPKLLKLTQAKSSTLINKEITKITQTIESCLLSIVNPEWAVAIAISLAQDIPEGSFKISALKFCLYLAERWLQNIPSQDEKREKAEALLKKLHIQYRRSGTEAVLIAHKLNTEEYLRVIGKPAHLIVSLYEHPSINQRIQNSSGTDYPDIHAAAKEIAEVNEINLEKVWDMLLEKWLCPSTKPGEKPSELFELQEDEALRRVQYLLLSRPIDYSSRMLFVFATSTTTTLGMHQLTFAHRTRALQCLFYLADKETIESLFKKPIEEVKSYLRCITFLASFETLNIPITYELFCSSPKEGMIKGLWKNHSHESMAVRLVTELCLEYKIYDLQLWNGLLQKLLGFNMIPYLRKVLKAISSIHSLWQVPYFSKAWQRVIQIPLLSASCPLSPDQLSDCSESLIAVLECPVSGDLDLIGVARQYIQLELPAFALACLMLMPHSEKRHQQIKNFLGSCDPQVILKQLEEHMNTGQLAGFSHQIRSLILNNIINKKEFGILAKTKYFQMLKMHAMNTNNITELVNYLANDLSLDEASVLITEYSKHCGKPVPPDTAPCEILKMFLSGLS
UniProt Q8TD16: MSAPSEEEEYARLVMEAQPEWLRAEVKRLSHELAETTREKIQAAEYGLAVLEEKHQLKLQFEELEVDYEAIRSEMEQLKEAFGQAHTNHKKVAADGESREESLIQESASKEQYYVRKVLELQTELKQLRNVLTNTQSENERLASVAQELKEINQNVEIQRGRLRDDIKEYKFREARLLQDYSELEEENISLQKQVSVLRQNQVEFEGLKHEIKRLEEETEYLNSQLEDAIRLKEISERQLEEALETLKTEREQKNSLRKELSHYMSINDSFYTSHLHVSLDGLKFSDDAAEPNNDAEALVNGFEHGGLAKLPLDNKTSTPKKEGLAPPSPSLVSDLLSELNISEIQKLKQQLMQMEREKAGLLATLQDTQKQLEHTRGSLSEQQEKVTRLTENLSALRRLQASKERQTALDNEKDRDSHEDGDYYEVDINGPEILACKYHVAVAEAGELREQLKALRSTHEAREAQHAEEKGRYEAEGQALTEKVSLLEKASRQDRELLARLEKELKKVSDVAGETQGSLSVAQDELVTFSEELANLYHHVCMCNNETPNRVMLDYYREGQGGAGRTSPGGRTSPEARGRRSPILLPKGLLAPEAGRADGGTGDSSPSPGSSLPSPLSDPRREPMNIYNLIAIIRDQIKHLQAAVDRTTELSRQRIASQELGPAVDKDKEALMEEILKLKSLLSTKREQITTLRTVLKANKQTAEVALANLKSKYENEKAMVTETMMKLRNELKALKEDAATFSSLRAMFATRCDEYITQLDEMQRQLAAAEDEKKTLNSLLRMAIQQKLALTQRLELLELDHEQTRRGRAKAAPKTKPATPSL

What was measured:
[1] = target: p25-6His (PE complex plasmid) (UniProt Q9BTE1); test: co-purification (HisTrap, anion exchange, SEC); four PE subunits co-expressed in insect cells; captured through p25-6His on HisTrap, Resource Q, Superdex 200 16/60; SDS-PAGE of the gel-filtration peak
[2] = target: Dynactin pointed-end (PE) capping complex (p25, p27, p62, Arp11) (UniProt Q9NZ32); test: SEC; PE complex 3 µM mixed with Spindly construct 8 µM (Fig. 3 F: 4 µM and 10 µM), at least 1 h on ice; Superdex 200 5/150 (named in the legend of Fig. 5); 4°C, Spindly buffer (50 mM Hepes pH 8.0, 250 mM NaCl, 2 mM TCEP); fractions on SDS-PAGE; both purified
[3] = target: ROD–Zwilch–ZW10 (RZZ) complex (UniProt P50748); test: SEC; Superose 6 5/150; RZZ 2 µM, pre-farnesylated mCh-Spindly construct 6 µM; both purified

binding [1]	Substance	other results
binds	Arp11 (PE complex plasmid) (from UniProt Q9NZ32 1-417)	–
–	^mChSpindly^Chimera (mCh-tagged BICD2-Spindly chimeric construct) (from UniProt Q8TD16 1-292; Q96EA4 251-605)	binding [2]: binds
binds	p27 (PE complex plasmid) (from UniProt O00399 1-190)	–
–	pre-farnesylated ^mChSpindly^Chimera (from UniProt Q8TD16 1-292; Q96EA4 251-605)	binding [3]: binds
